The supplement of paper PMC10735217
Counter-ions that a name gives are not always drawn. The list shows a part of the results. Single values are uncertain here, since repeats match poorly.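 Human kidney-derived cells stably carry a construct in which eight TEAD-binding elements drive luciferase, measured by luminescence in a drug-repurposing library screen. A hit is any compound whose signal exceeds the plate mean by more than five robust Z scores.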

Tested on: HEK293A TEAD-LUC reporter
Experiment: TEAD-luciferase reporter activity (YAP activation), robust Z score vs plate; higher = stronger YAP/TEAD activation
Conditions: 24 h

SMILES | TEAD-luciferase reporter activity (compound concentration: 200 nM) | TEAD-luciferase reporter activity (compound concentration: 2 uM) | TEAD-luciferase reporter activity (compound concentration: 10 uM)
O=C(N[C@@H](Cc1ccccc1)C(=O)O)c1ccc(-c2ccc(C(F)(F)F)cc2)cc1 | inactive: -0.171 | inactive: 0.153 | inactive: -0.45
N=C(N)N/N=C1\CCc2c(C(=N)N)cccc21 [Sardomozide] | inactive: 1.04 | inactive: -0.973 | inactive: -0.484
CC[C@H](C)[C@H](NC(=O)[C@H](C)NC(=O)[C@@H](N)C(C)C)C(=O)N[C@H](C(=O)N[C@H](C(=O)N[C@@H](CC(C)C)C(=O)N[C@H](C(=O)N[C@@H](CCCCN)C(=O)O)C(C)C)C(C)C)[C@@H](C)O | inactive: -1.1 | inactive: -1.59 | inactive: -0.477
COC(=O)COc1cccc(CCc2nc(-c3ccccc3)c(-c3ccccc3)o2)c1 | inactive: 4.19 | inactive: -0.57 | inactive: 3.87
CC12CCC(=O)C=C1CCC1C2C(O)CC2(C=O)C(C(=O)CO)CCC12 (stereo not given) | inactive: -0.0149 | inactive: -1.05 | inactive: 0.925
O=[N+]([O-])CC(SCc1ccc(Cl)cc1)c1ccccc1 (stereo not given) | inactive: -1.5 | inactive: 0.199 | inactive: 1.19
CCN(CC)CCCN(c1ccccc1)C1Cc2ccccc2C1 [aprindine] | inactive: -0.74 | inactive: 2.48 | inactive: 4.92
CC(C)c1oc(-c2ccc(Cl)cc2Cl)nc1CCC(=O)c1ccc(OC(C)(C)C(=O)O)cc1 | inactive: -0.809 | inactive: -0.918 | inactive: 2.22
N=C(N)c1ccc(C=C2c3ccccc3-c3ccccc32)cc1 | inactive: -0.311 | inactive: -1.4 | inactive: -0.832
CCN(Cc1cc(C(F)(F)F)ccc1-c1cc(CC(=O)O)ccc1OC)C(=O)NCc1ccccc1 | inactive: 0.377 |  | inactive: 2.36
O=C(O)c1cccc(C[C@H]2COc3ccc(OCc4nc5cc(F)ccc5s4)cc3[C@H]2O)c1 | inactive: -1.03 | inactive: -0.484 | inactive: -0.706
COc1cc2c(cc1OC)C(CCc1ccccc1)=NCC2 | inactive: -3.66 | inactive: -1.17 | inactive: 0.0471
Cc1cc(OCCN(C)C)c(C(C)C)cc1OC(=O)CC(C)(C)SN=O | inactive: -1.12 | inactive: 0.912 | inactive: -0.961
OCc1ccccc1O[C@@H]1O[C@H](CO)[C@@H](O)[C@H](O)[C@H]1O [Salicin] | inactive: -0.475 | inactive: -0.504 | inactive: 3.46
Cc1ccc2c(-c3ccccc3)nc(=O)n(C(C)C)c2c1 [proquazone] | inactive: -1.94 | inactive: -0.836 | inactive: -0.34
CCC[C@H](NC(=O)[C@@H]1[C@H]2CCC[C@H]2CN1C(=O)[C@@H](NC(=O)[C@@H](NC(=O)c1cnccn1)C1CCCCC1)C(C)(C)C)C(=O)C(=O)NC1CC1 [telaprevir] | inactive: -0.79 | inactive: -1.89 | inactive: -1.03

A section from the list above, as a working copy:
SMILES | TEAD-luciferase reporter activity (compound concentration: 200 nM) | TEAD-luciferase reporter activity (compound concentration: 2 uM) | TEAD-luciferase reporter activity (compound concentration: 10 uM)
COC(=O)COc1cccc(CCc2nc(-c3ccccc3)c(-c3ccccc3)o2)c1 | inactive: 4.19 | inactive: -0.57 | inactive: 3.87
CC12CCC(=O)C=C1CCC1C2C(O)CC2(C=O)C(C(=O)CO)CCC12 (stereo not given) | inactive: -0.0149 | inactive: -1.05 | inactive: 0.925

More structures follow.

SMILES | TEAD-luciferase reporter activity (compound concentration: 200 nM) | TEAD-luciferase reporter activity (compound concentration: 2 uM) | TEAD-luciferase reporter activity (compound concentration: 10 uM)
C[C@H](N)C(=O)N1CCC[C@H]1C(=O)NCC(=O)N1CCC[C@H]1C(=O)N[C@@H](CCCNC(=N)N)C(=O)O | inactive: -1.18 | inactive: 1.31 | inactive: -0.212
C[C@]12CC[C@@H]3c4ccc(O)cc4CC[C@H]3[C@@H]1CC[C@H]2O [alpha-estradiol] | inactive: 3.55 | inactive: -0.381 | inactive: -0.642
COCC(O)CN(C(C)=O)c1c(I)c(C(=O)NCC(O)CO)c(I)c(C(=O)NCC(O)CO)c1I (stereo not given) [iopentol] | inactive: -0.856 | inactive: -0.687 | inactive: 0.202
CC(C)C[C@H](NC(=O)[C@H](CC(C)C)NC(=O)[C@@H](Cc1c[nH]c2ccccc12)NC(=O)[C@H](Cc1ccccc1)NC(=O)[C@@H](Cc1c[nH]c2ccccc12)NC(=O)[C@H](CCC(N)=O)NC(=O)[C@@H](Cc1ccccc1)NC(=O)[C@@H]1CCCN1C(=O)[C@H](CCCCN)NC(=O)[C@@H]1CCCN1C(=O)[C@H](N)CCCNC(=N)N)C(N)=O | inactive: -1.54 | inactive: 1.07 | inactive: -0.697
CCNCc1cc(C(C)(C)C)c(O)c(C(C)(C)C)c1 | inactive: -2.87 | inactive: -1.06 | inactive: 4.63
Cc1ccccc1CN1CCCC12Cc1ccccc1CNC2=O (stereo not given) | inactive: 2.18 |  | inactive: 0.617
CN(C)CCOc1ccc2c(=O)c3ccc(OCCN(C)C)cc3oc2c1 | inactive: 1.51 | inactive: 0.787 | inactive: -0.233
COC(=O)C1=C(C)NC(C)=C(C(=O)O[C@@H]2CCN(Cc3ccccc3)C2)C1c1cccc([N+](=O)[O-])c1 (stereo not given in full) [Pharmaprojects No. 2106] | inactive: 0.779 | inactive: -1.99 | inactive: -0.717
O=C1C[C@@H]2CCN(C(=O)c3ccc4c(c3)OCO4)C[C@@H]2CCN1 | active: 6.18 |  | inactive: 2.02
CN1CCN(c2ccc3[nH]c(-c4ccc5[nH]c(-c6ccc(O)cc6)nc5c4)nc3c2)CC1 | inactive: -0.588 | inactive: -0.43 | inactive: -1.21
O=C(O)c1cn2c3c(c(N4CCN(c5ccccn5)CC4)c(F)cc3c1=O)OCC2CF (stereo not given) | inactive: -1.46 | inactive: -0.725 | inactive: 2.96
CC(=O)OCCN1CCN(CC/C=C2/c3ccccc3Sc3ccc(Cl)cc32)CC1 [Zuclopenthixol acetate] | inactive: -1 | inactive: 0.00119 | inactive: -0.37
O=c1[nH]nc(OCCCc2ccc(Cl)cc2)c(NCc2cccnc2)c1Br [parogrelil hydrochloride] | inactive: 0.732 | inactive: -0.612 | inactive: -0.617
COc1ccc2nc3cc(Cl)ccc3c(Nc3cc(CN4CCCC4)c(O)c(CN4CCCC4)c3)c2n1 [pyronaridine] | inactive: -0.558 | active: 8.66 | inactive: -0.394
Cc1c(F)cc(C(=O)NC2CC2)cc1-c1ccc(C(=O)NCC(C)(C)C)cn1 [losmapimod] | inactive: -0.934 | inactive: -1.62 | inactive: -0.613
